Data reported in paper PMC11514447.

The chains behind the UniProt entries cited, without tags or fusion partners.
UniProt P23588, whole entry: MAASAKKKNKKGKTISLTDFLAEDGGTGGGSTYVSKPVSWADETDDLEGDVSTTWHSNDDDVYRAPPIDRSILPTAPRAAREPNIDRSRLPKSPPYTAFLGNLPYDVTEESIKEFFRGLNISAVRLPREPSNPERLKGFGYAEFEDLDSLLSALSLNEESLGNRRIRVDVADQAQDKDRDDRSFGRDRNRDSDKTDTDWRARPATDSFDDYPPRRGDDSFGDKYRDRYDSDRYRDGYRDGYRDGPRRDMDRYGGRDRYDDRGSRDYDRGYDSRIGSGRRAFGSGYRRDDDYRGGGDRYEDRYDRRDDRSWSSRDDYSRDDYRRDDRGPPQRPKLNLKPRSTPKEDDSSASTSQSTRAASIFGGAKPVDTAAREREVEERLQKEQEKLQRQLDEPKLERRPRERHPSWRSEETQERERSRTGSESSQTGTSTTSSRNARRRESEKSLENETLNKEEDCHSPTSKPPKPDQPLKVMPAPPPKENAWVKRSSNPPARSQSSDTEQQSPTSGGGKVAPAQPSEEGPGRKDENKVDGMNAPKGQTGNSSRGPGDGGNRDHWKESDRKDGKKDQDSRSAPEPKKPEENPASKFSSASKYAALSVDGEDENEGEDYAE

Biological target: eIF4B (UniProt P23588)
Assay: fluorescence polarization
Conditions: 2 mM ATP, 2 mM Mg2+, 20 mM HEPES/KOH pH 7.5, 100 mM KCl, 1 mM TCEP, 2 mM MgCl2, 40 nM FAM-RNA, 60 min, 25 C, recombinant protein

Row | Sequence | binding result | further results
1 | AGAGAGAGAGAGAGAGAGAGAGAGAGAGAG [30 nt AG] | – | binding result (positive control): binds
2 | AUGGCUACCUCUCGAUAUGAGCCAGUGGCUGAAAUGGGUGUCGGUGCC [CDK4-CDS] | binds more weakly | –
3 | GGCUCUUUUCAGAGCCACCCA [His1-SL] | binds more weakly | –
4 | UCCUUUGGCCAACUGCUUAGAAGCCCAACACAACCCAAA [His1-ssRNA] | – | binding result (RNA pre-incubated with 200 nM UPF1 (TP308018), which blocked eIF4B binding): no binding

For at least one entry, the source does not settle the construct or the ends of the probe. Negatives hold for the conditions tested. The comparison behind a weaker result is the experiment's own reference, which may not be listed here. At least one verdict rests on a figure or table, not on a statement of the authors.
